Measured values from article PMC5118709, “Identification of Polo-like kinase 1 interaction inhibitors using a novel cell-based assay” (Scientific Reports, 2016).
These are yes or no findings as the source states them, for the method shown. For part of these data: In cells and extracts the contact can be indirect. Some results given as binding are weak or reduced against the parent protein; the word gives no strength. For part of these data: Where a sequence is shown, tags or fusion partners need not be part of it. One block for each molecule: values may come before it.

Experiments:
[1] = molecular target: T1, FITC-GPMQS{T}PLNG (FITC-labeled PBD-binding phosphopeptide); test: fluorescence polarisation; His-PBD with the phosphopeptide, after dialysis against 50 mM NaH2PO4 pH 8, 400 mM NaCl, 1 mM EDTA, 10% glycerol, 0.01% NP-40; data not shown; both purified
T1 sequence (peptide, {T}, phosphorylated threonine (phosphopeptide); FITC on the N-terminus): GPMQSTPLNG

[2] = molecular target: human Plk1 C-terminally fused to RLucII (Plk1-Luc) (human) (UniProt P53350); test: FRET or BRET; BRET in live HEK293T cells; transient transfection with a constant amount of RLucII plasmid (40 ng) and increasing GFP10 plasmid (0-400 ng), read 48 h later in Tyrode solution with coelenterazine 400a; also a clonal stable Plk1-Luc/GFP-Map line
[3] = molecular target: human Plk1 N-terminally fused to GFP10 (GFP-Plk1) (human) (UniProt P53350); test: co-IP; LUMIER: HEK293T cells stably expressing Map-Luc/GFP-Plk1, treated 2 h with compounds (10-25 uM; Cpd 16, TQ, PPG, BI2536 and others) or DMSO, lysed in IP buffer (20 mM Tris pH 7.5, 150 mM NaCl, 0.5% NP-40); GFP-Plk1 precipitated with anti-GFP and protein A magnetic beads, co-purified Map-Luc read by luminescence

- binding [1]: binds
Molecule: His-PBD_(326-603) (from UniProt P53350 326-603) (domain or fragment)

- binding [2]: binds
B1: Drosophila Map205 fragment 254-416 N-terminally fused to GFP10 (GFP-Map) (domain or fragment, UniProt P23226 254-416)
chain: PLPAAEDPLPGVQPRPFLPGGTLDDLVAESPRKEFARINMDGIAVPDEREFDIEADMRPHELEQESDTFGAGHLEMQLLNGIGTADQAALRDVLDHGPETSVDMELPLDQVPNDADIMKQSIYAEHNSSIEDILNSVQPLPIQTCDDKELIHVEEKEHVSKSP

- binding [3]: binds
B2: Drosophila Map205 fragment 254-416 C-terminally fused to RLucII (Map-Luc) (domain or fragment, UniProt P23226 254-416)
chain: PLPAAEDPLPGVQPRPFLPGGTLDDLVAESPRKEFARINMDGIAVPDEREFDIEADMRPHELEQESDTFGAGHLEMQLLNGIGTADQAALRDVLDHGPETSVDMELPLDQVPNDADIMKQSIYAEHNSSIEDILNSVQPLPIQTCDDKELIHVEEKEHVSKSP
